The reference is the same well before dosing, and untreated signal decays as well.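 Fibroblast labels name human fibroblasts: mostly primary ones from tissues such as uterus (C12385, HUF), lung (H6013), bone (Hs27A), adrenal (HADF) and skin (WS1), plus mammary HMF and breast cancer-associated Hs343T. The cancer cells are basal-like or mesenchymal-like triple-negative breast cancer lines. The paper calls a changed response a hit when it shifts by more than 3x the replicate standard deviation. The tissue of the other fibroblasts is not given here.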
System: MDAMB436
Experiment: relative JC-1 red fluorescence (viability) vs pre-drug, coculture with fibroblast (fraction); higher = more viable cancer cells
Settings: 10 µM
Method: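 JC-1 labelled TNBC cells cocultured 1:1 (1,500 cells each) with CellTrace Violet stained primary or stromal fibroblasts in 384-well plates in FluoroBrite medium, treated with one of 42 anticancer drugs at 0.1, 1, 10 or 100 uM. JC-1 red fluorescence (mitochondrial integrity in cancer cells only) was read by plate reader every 8 h for 72 h. Values are normalised to each well's pre-drug value. The stock of one drug was tenfold lower, so its dose labels may be too high.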

O=C(O)C1(C(=O)O)CCC1.[NH2-].[NH2-].[Pt+2] [Carboplatin]
relative JC-1 red fluorescence
Settings	8 h	16 h	24 h	32 h	40 h	48 h	56 h	64 h	72 h
coculture fibroblast: C12385	0.819	0.706	0.645	0.558	0.506	0.48	0.455	0.438	0.429
coculture fibroblast: H6013	0.852	0.753	0.7339	0.7222	0.704	0.712	0.68	0.661	0.62
coculture fibroblast: H6019	0.759	0.648	0.627	0.542	0.511	0.493	0.47	0.446	0.424
coculture fibroblast: H6076	0.81117	0.657	0.606	0.556	0.521	0.491	0.487	0.4848	0.4754
coculture fibroblast: H6231	0.746	0.635	0.564	0.504	0.461	0.424	0.411	0.383	0.363
coculture fibroblast: HADF	0.805	0.704	0.669	0.629	0.598	0.603	0.555	0.537	0.498
coculture fibroblast: HCFa	0.762	0.669	0.636	0.597	0.573	0.581	0.519	0.51	0.461
coculture fibroblast: HCPF	0.806	0.719	0.618	0.563	0.526	0.477	0.446	0.419	0.3995
coculture fibroblast: HHSteC	0.81	0.7442	0.705	0.6617	0.645	0.654	0.594	0.5695	0.5158
coculture fibroblast: HMF	0.782	0.64	0.537	0.5	0.46	0.427	0.419	0.402	0.398
coculture fibroblast: HPFa	0.8485	0.7911	0.7347	0.69105	0.6601	0.6562	0.573	0.54	0.455
coculture fibroblast: HUF	0.8339	0.7175	0.677	0.598	0.5417	0.517	0.49	0.474	0.466
coculture fibroblast: Hs5	0.805	0.691	0.6	0.524	0.484	0.446	0.4356	0.404	0.388
coculture fibroblast: Hs27A	0.7848	0.71324	0.688	0.664	0.627	0.674	0.609	0.596	0.545
coculture fibroblast: Hs343T	0.75	0.589	0.497	0.443	0.404	0.374	0.358	0.346	0.35
coculture fibroblast: WS1	0.804	0.705	0.661	0.584	0.54	0.518	0.489	0.459	0.44
